From patent US12404345B2, “Humanized antibodies against iRHOM2” (SCIRHOM GMBH, priority 2021, dated 2025)
At least one compound was matched to its structure with a doubt left.

Key:
Format in all cases: cell-based
[1] = test system: PMA-induced release of endogenous HB-EGF from human THP-1 monocytic cells; test: ELISA-based HB-EGF release assay, PMA-induced, THP-1 cells; settings: Batimastat 10 μM; PMA 25 ng/ml, 24 hours
[2] = test system: LPS-induced release of endogenous TNFα from human THP-1 monocytic cells; test: ELISA-based TNFα release assay, LPS-induced, THP-1 cells; settings: Batimastat 10 μM; LPS 50 ng/ml, 2 hours
[3] = test system: PMA-induced release of endogenous IL-6R from human U-937 cells; test: ELISA-based IL-6R release assay, PMA-induced, U-937 cells; settings: Batimastat 10 μM; PMA 25 ng/ml, 1 hour
[4] = test system: PMA-induced release of endogenous IL-6R from human THP-1 monocytic cells; test: ELISA-based IL-6R release assay, PMA-induced, THP-1 cells; settings: Batimastat 10 μM; PMA 25 ng/ml, 1 hour
[5] = test system: PMA-induced release of endogenous HB-EGF from human U-937 cells; test: ELISA-based HB-EGF release assay, PMA-induced, U-937 cells; settings: Batimastat 10 μM; PMA 25 ng/ml, 24 hours
[6] = test system: PMA-induced release of endogenous TNFα from human monocytic U-937 cells; test: ELISA-based TNFα release assay, PMA-induced, U-937 cells; settings: Batimastat 10 μM; PMA 25 ng/ml, 1 hour

CNC(=O)[C@H](Cc1ccccc1)NC(=O)[C@H](CC(C)C)[C@H](CSc1cccs1)C(=O)NO [Batimastat]
strong inhibition: inhibition of PMA-induced release of HB-EGF from THP-1 cells (in words) [1] | inhibition of LPS-induced release of TNFα from THP-1 cells (in words) [2] | inhibition of PMA-induced release of IL-6R from U-937 cells (in words) [3] | inhibition of PMA-induced release of IL-6R from THP-1 cells (in words) [4] | inhibition of PMA-induced release of HB-EGF from U-937 cells (in words) [5] | inhibition of PMA-induced release of TNFα from U-937 cells (in words) [6]
